No constants are given. Whether binding was seen depends on the method and setting. For part of these data: Binding seen in cells or lysates may run through a third protein. Some entries that bind do so weakly or less than the wild type. For part of these data: Where a sequence is shown, tags or fusion partners need not be part of it.
Legend:
[1] = molecular target: GST-tagged truncated MCM7 fragment, AAA domain (amino acids 373-526) (UniProt P33993); test: pull-down; GST/His pull-down; purified GST-tagged and His-tagged proteins mixed in 0.5 ml binding buffer (50 mM Tris-HCl pH 7.4, 150 mM NaCl, 0.5% Triton X-100) with Glutathione Sepharose 4B beads and HisPur Ni-NTA Resin overnight at 4 °C; Western blot with GST and His antibodies; both purified
[2] = molecular target: GST-tagged truncated MCM7 fragment, N-terminal domain (amino acids 10-140) (UniProt P33993); test: as above
[3] = molecular target: minichromosome maintenance complex component 7 (MCM7), endogenous (human (endogenous in HepG2)) (UniProt P33993); test: co-IP; endogenous proteins in HepG2 lysate; anti-MCM7 antibody or isotype-matched control IgG, protein A/G-agarose beads, 4 °C; IP buffer 150 mM NaCl, 25 mM Tris-HCl pH 8.0, 1 mM EDTA, 1% Triton X-100, 0.5% Nonidet P-40
[4] = molecular target: STAT3, endogenous (human (endogenous in HepG2)) (UniProt P40763); test: co-IP; RACGAP1 and STAT3 in lysate of HepG2 cells transfected with shCtrl, shSHCBP1 or shMCM7
[5] = molecular target: T1, SHCBP1, endogenous (human (endogenous in HepG2 and HL7702)) (UniProt Q8NEM2); test: co-IP; endogenous SHCBP1 and RACGAP1 in HepG2 lysate; also in HepG2 cells transfected with shCtrl or shMCM7
T1 sequence: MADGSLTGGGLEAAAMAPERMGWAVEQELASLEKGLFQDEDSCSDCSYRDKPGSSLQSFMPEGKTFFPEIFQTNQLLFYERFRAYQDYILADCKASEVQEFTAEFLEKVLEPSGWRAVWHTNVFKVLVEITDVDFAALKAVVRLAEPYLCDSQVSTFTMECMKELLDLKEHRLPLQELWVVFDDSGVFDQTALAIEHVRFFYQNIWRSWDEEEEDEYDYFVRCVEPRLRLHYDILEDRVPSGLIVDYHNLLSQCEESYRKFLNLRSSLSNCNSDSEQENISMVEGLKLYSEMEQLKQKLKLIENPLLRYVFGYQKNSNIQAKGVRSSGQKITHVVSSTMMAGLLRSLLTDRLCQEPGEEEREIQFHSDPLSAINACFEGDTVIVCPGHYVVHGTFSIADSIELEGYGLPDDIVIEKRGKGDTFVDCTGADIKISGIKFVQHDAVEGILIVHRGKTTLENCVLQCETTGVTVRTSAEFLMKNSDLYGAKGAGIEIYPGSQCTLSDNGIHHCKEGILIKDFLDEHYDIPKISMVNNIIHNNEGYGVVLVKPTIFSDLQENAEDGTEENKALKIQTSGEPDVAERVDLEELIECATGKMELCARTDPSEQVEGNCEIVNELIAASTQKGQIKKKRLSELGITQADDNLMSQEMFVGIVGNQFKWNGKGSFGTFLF

Sequences of proteins named here, by UniProt entry; tags and fusion partners are left off. A change or cut given only in a name is not applied to a line headed by its entry. Residues count along the entry.
UniProt P33993: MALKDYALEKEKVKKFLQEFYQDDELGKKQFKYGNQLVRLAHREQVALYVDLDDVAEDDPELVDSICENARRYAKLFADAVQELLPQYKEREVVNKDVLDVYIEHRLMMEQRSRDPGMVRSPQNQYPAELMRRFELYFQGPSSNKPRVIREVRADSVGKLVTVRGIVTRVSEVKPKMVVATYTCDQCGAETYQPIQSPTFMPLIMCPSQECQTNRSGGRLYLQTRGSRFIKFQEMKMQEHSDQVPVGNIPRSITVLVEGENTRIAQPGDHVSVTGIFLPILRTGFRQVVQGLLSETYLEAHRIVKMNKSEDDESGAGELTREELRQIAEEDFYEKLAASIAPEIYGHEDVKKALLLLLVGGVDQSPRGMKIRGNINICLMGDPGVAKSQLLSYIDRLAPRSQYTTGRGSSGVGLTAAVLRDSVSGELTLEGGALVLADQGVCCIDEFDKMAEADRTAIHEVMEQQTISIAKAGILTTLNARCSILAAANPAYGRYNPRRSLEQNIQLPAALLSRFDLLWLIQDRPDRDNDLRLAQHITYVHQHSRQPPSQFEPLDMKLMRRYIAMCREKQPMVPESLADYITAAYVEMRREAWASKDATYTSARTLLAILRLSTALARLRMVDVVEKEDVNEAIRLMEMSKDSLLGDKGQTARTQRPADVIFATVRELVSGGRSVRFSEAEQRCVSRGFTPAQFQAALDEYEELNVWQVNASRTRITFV
MCM7 N-terminal domain (amino acids 10-140), for Co-IP: residues 10-140 of P33993
MCM7 AAA domain (amino acids 373-526), for Co-IP: residues 373-526 of P33993
UniProt P40763: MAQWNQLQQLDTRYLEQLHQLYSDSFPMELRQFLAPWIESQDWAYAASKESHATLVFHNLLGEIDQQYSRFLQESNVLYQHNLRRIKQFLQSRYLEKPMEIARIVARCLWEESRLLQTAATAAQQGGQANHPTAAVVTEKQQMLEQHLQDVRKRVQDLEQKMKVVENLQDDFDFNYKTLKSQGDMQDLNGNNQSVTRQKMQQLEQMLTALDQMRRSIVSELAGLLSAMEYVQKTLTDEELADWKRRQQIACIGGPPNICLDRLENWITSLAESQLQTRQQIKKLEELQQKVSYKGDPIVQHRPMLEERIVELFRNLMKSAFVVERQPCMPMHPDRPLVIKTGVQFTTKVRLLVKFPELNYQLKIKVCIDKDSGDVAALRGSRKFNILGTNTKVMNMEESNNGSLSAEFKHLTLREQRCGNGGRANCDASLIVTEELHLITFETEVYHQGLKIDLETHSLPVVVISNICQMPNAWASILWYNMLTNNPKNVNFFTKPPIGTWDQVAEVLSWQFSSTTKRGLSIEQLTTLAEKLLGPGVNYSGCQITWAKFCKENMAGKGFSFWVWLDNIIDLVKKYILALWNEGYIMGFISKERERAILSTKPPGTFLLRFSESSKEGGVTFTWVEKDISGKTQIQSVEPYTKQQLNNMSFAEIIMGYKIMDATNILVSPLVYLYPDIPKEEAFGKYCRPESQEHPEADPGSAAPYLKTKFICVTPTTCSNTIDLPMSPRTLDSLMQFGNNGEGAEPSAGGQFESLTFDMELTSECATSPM

[6] = molecular target: FLAG/HA-tagged MCM7 (full length) (UniProt P33993); test: co-IP; MCM7 and SHCBP1 overexpressed in HEK293T cells (Fig. S6D)
[7] = molecular target: FLAG/HA-tagged MCM7 (full length) (UniProt P33993); test: co-IP; FLAG/HA-tagged MCM7 and FLAG/HA-tagged SHCBP1 overexpressed in HepG2 cells
[8] = molecular target: MCM7 AAA domain (amino acids 373-526), for Co-IP (UniProt P33993); test: co-IP; truncated MCM7 fragments with SHCBP1 (Fig. 4G); cell line not stated for this panel
[9] = molecular target: MCM7 N-terminal domain (amino acids 10-140), for Co-IP (UniProt P33993); test: as above

B1: His-tagged full-length SHCBP1 (protein, UniProt Q8NEM2 1-672)
chain: T1 sequence
- binding [1]: binds
- binding [2]: binds

B2: SHCBP1, endogenous (protein, UniProt Q8NEM2 1-672)
chain: T1 sequence
- binding [3]: binds

B3: RACGAP1, endogenous (protein, UniProt Q9H0H5 1-632)
chain: MDTMMLNVRNLFEQLVRRVEILSEGNEVQFIQLAKDFEDFRKKWQRTDHELGKYKDLLMKAETERSALDVKLKHARNQVDVEIKRRQRAEADCEKLERQIQLIREMLMCDTSGSIQLSEEQKSALAFLNRGQPSSSNAGNKRLSTIDESGSILSDISFDKTDESLDWDSSLVKTFKLKKREKRRSTSRQFVDGPPGPVKKTRSIGSAVDQGNESIVAKTTVTVPNDGGPIEAVSTIETVPYWTRSRRKTGTLQPWNSDSTLNSRQLEPRTETDSVGTPQSNGGMRLHDFVSKTVIKPESCVPCGKRIKFGKLSLKCRDCRVVSHPECRDRCPLPCIPTLIGTPVKIGEGMLADFVSQTSPMIPSIVVHCVNEIEQRGLTETGLYRISGCDRTVKELKEKFLRVKTVPLLSKVDDIHAICSLLKDFLRNLKEPLLTFRLNRAFMEAAEITDEDNSIAAMYQAVGELPQANRDTLAFLMIHLQRVAQSPHTKMDVANLAKVFGPTIVAHAVPNPDPVTMLQDIKRQPKVVERLLSLPLEYWSQFMMVEQENIDPLHVIENSNAFSTPQTPDIKVSLLGPVTTPEHQLLKTPSSSSLSQRVRSTLTKNTPRFGSKSKSATNLGRQGNFFASPMLK
- binding [4]: binds
- binding [5]: binds

B4: FLAG/HA-tagged SHCBP1 (protein, UniProt Q8NEM2 1-672)
chain: T1 sequence
- binding [6]: binds
- binding [7]: binds
- binding [8]: binds
- binding [9]: binds
